{"source": "the supplement of paper PMC12425257", "note": "± gives the standard deviation of the averaged measurements. The list shows a part of the results."}
{"tested_on": "Madurella mycetomatis MM55", "assay": "metabolic activity (growth) relative to DMSO growth control; higher = more fungal growth", "details": "1 µM", "units": {"metabolic activity": "%"}}
{"molecule": "CCc1c(-c2nonc2N)nc2c(C#Cc3ccccc3)ccc(N3C[C@H](O)[C@@H](O)C3)n12", "metabolic activity": "94.2 ± 16"}
{"molecule": "O=C(NOC[C@H](O)CO)c1ccc(F)c(F)c1Nc1ccc(I)cc1F", "metabolic activity": "91.6 ± 1"}
{"molecule": "CN(C)c1cc2c(Nc3ccc4c(cnn4Cc4ccccc4)c3)ncnc2cn1", "metabolic activity": "84.3 ± 28"}
{"molecule": "Nc1nc(-c2ccc3c(N)n[nH]c3c2)cc(N2CCC[C@@H](C(=O)Nc3ccccc3)C2)n1", "metabolic activity": "109 ± 14"}
{"molecule": "C/C(Nc1ccc(S(N)(=O)=O)cc1)=C1/C(=O)Nc2ccccc21", "metabolic activity": "101 ± 20"}
{"molecule": "NS(=O)(=O)c1ccc(N/N=C2\\C(=O)Nc3ccc(Cl)cc32)cc1", "metabolic activity": "114 ± 5"}
{"molecule": "CCOc1cc(C(=O)N2CCC(N3CCN(C)CC3)CC2)ccc1Nc1ncc2c(n1)N(C1CCCC1)c1ccccc1C(=O)N2C", "metabolic activity": "99.8 ± 28"}
{"molecule": "Cc1cn(-c2cc(NC(=O)c3ccc4c(c3)CN(c3cncnc3)C[C@@H]4C)cc(C(F)(F)F)c2)cn1", "metabolic activity": "124 ± 28"}
{"molecule": "CC(C)Nc1ncnc2cc(OCc3cccc(S(C)(=N)=O)c3)c(Br)cc12", "note": "(stereo not drawn)", "metabolic activity": "117 ± 17"}
{"molecule": "Cc1ccc(-n2nc(C(C)(C)C)cc2NC(=O)Nc2ccc(OCCN3CCOCC3)cc2)cc1", "metabolic activity": "123 ± 19"}
{"molecule": "CC(C)(C)c1ccc(C(=O)Nc2cn3cc(-c4cccnc4)ccc3n2)cc1", "metabolic activity": "121 ± 3.1"}
{"molecule": "CN1CCN(c2nc(C3=C(c4c[nH]c5ccsc45)C(=O)NC3=O)c3ccc(F)cc3n2)CC1", "metabolic activity": "120 ± 11"}
{"molecule": "CC(C)N1CC(=O)N(C)c2cnc(Nc3cccc(S(=O)(=O)CCN4CCOCC4)c3)nc21", "metabolic activity": "100 ± 14"}
{"molecule": "Cc1ccc(C(=O)NCC(N)=O)cc1-n1c(C)cc(OCc2ccc(F)cc2F)c(Br)c1=O", "metabolic activity": "103 ± 4.1"}
{"molecule": "COc1cc(N2CCN(C)CC2)ccc1Nc1ncc(Cl)c(Oc2cccc(NC(=O)CC(F)(F)F)c2)n1", "metabolic activity": "87.1 ± 2.3"}
{"molecule": "COc1cc2nccc(Nc3ccc(OCc4ccc(NC(C)=O)cc4)cc3)c2cc1OC", "metabolic activity": "89.5 ± 5.7"}
{"molecule": "NS(=O)(=O)c1ccc(N/N=C2\\C(=O)Nc3ccc(C(=O)NCCc4c[nH]cn4)cc32)cc1", "metabolic activity": "90.9 ± 7.5"}
{"molecule": "CC(C)c1nnc2ccc(-c3c(-c4ccc(F)cc4F)nc4occn34)cn12", "metabolic activity": "80.5 ± 1.1"}
{"molecule": "COC(=O)C(NC(=O)NC1CCN(c2ccnc(Nc3ccc(F)cc3)n2)C1)c1ccccc1", "note": "(stereo not drawn)", "metabolic activity": "108 ± 5.1"}
{"molecule": "c1ccc(-c2cc3ccncc3cc2OC2CCNCC2)cc1", "metabolic activity": "86.3 ± 1.1"}
{"molecule": "COC(=O)c1c(-c2ccccc2)c2cc(OC)ccc2c(=O)n1Cc1ccccc1", "metabolic activity": "112.4 ± 0.64"}
{"molecule": "CSc1cccc(-c2cc3c(SCCC(=O)O)ncnc3s2)c1", "metabolic activity": "105 ± 20"}
{"tested_on": "Madurella mycetomatis MM55", "assay": "metabolic activity (growth) relative to DMSO growth control; higher = more fungal growth", "details": "2 µM", "units": {"metabolic activity": "%"}}
{"molecule": "Cn1ccc(-c2cccc(Nc3ccnc4cc(-c5nccs5)ccc34)c2)n1", "metabolic activity": "90.9 ± 5.1"}
{"molecule": "Nc1n[nH]c2cc(-c3cnn(Cc4ccccc4)c3)ccc12", "metabolic activity": "107 ± 12"}
{"molecule": "COc1cc(-c2cncc(-c3cnn(C4CCNCC4)c3)c2)cc(OC)c1OC", "metabolic activity": "118 ± 38"}
{"molecule": "CNCc1ccc(-c2cc(-c3nc(-c4ccc(S(=O)(=O)C(C)C)cc4)cnc3N)on2)cc1", "metabolic activity": "86.932 ± 0.0097"}
{"molecule": "CCCNC(=O)c1ccc(Nc2ncc(C(F)(F)F)c(Nc3ccccc3C(C)=O)n2)c(Br)c1", "metabolic activity": "125 ± 29"}
{"molecule": "COCCOCCOc1cc2c(cc1OC)NC(=O)c1ccc(-c3ccc([N+](=O)[O-])c(OC)c3)cc1N2", "metabolic activity": "120 ± 20"}
{"molecule": "COc1ncccc1-c1cnn2ccc(N3CCN4C(=O)NCC4C3)nc12", "note": "(stereo not drawn)", "metabolic activity": "93.4 ± 7.9"}
{"molecule": "CCc1c(-c2ccc(C(C)(C)O)cc2)[nH]c2nc(C)c3cncn3c12", "metabolic activity": "101 ± 30"}
{"molecule": "COc1ccc(COc2ccc(Cc3cnc(N)nc3N)cc2OC)cc1", "metabolic activity": "74.4 ± 5.8"}
{"molecule": "Cc1ccc(-n2c(=O)c3cnc(Nc4ccc(N5CCN(C)CC5)cc4)nc3n3ccnc23)c(Cl)c1.O=C(O)C(F)(F)F.O=C(O)C(F)(F)F", "metabolic activity": "93.9 ± 28"}
{"molecule": "CC(C)c1cc(-c2ccc3c(N)n[nH]c3c2)nc(N)n1", "metabolic activity": "93.2 ± 25"}
{"molecule": "CC(C)(C)c1cnc(CSc2cnc(NC(=O)C3CCOCC3)s2)o1", "metabolic activity": "108 ± 14"}
{"molecule": "CCS(=O)(=O)Nc1cccc(Oc2cc(F)cc(Nc3ccc(I)cc3F)c2NS(=O)(=O)C2CC2)c1", "metabolic activity": "123 ± 32"}
{"molecule": "Cc1ccc(-c2cc(-c3c[nH]nc3-c3ccccn3)ccn2)cc1", "metabolic activity": "73.2 ± 4.6"}
{"molecule": "CCc1c(-c2nonc2N)nc2c(C#Cc3ccccc3)ccc(N3C[C@H](O)[C@@H](O)C3)n12", "metabolic activity": "100 ± 30"}
{"molecule": "O=C(NOC[C@H](O)CO)c1ccc(F)c(F)c1Nc1ccc(I)cc1F", "metabolic activity": "85.1 ± 4.6"}
{"molecule": "CN(C)c1cc2c(Nc3ccc4c(cnn4Cc4ccccc4)c3)ncnc2cn1", "metabolic activity": "81.7 ± 37"}
{"molecule": "Nc1nc(-c2ccc3c(N)n[nH]c3c2)cc(N2CCC[C@@H](C(=O)Nc3ccccc3)C2)n1", "metabolic activity": "103 ± 16"}
{"molecule": "C/C(Nc1ccc(S(N)(=O)=O)cc1)=C1/C(=O)Nc2ccccc21", "metabolic activity": "66.4 ± 4.5"}
{"molecule": "NS(=O)(=O)c1ccc(N/N=C2\\C(=O)Nc3ccc(Cl)cc32)cc1", "metabolic activity": "119 ± 26"}
{"molecule": "CCOc1cc(C(=O)N2CCC(N3CCN(C)CC3)CC2)ccc1Nc1ncc2c(n1)N(C1CCCC1)c1ccccc1C(=O)N2C", "metabolic activity": "81.5 ± 5.4"}
{"molecule": "Cc1cn(-c2cc(NC(=O)c3ccc4c(c3)CN(c3cncnc3)C[C@@H]4C)cc(C(F)(F)F)c2)cn1", "metabolic activity": "94.7 ± 14"}
{"molecule": "CC(C)Nc1ncnc2cc(OCc3cccc(S(C)(=N)=O)c3)c(Br)cc12", "note": "(stereo not drawn)", "metabolic activity": "74.5 ± 4.2"}
{"molecule": "Cc1ccc(-n2nc(C(C)(C)C)cc2NC(=O)Nc2ccc(OCCN3CCOCC3)cc2)cc1", "metabolic activity": "103 ± 14"}
{"molecule": "CC(C)(C)c1ccc(C(=O)Nc2cn3cc(-c4cccnc4)ccc3n2)cc1", "metabolic activity": "93.7 ± 23"}
{"molecule": "CN1CCN(c2nc(C3=C(c4c[nH]c5ccsc45)C(=O)NC3=O)c3ccc(F)cc3n2)CC1", "metabolic activity": "89.2 ± 30"}
{"molecule": "CC(C)N1CC(=O)N(C)c2cnc(Nc3cccc(S(=O)(=O)CCN4CCOCC4)c3)nc21", "metabolic activity": "78.4 ± 18"}
{"molecule": "Cc1ccc(C(=O)NCC(N)=O)cc1-n1c(C)cc(OCc2ccc(F)cc2F)c(Br)c1=O", "metabolic activity": "101 ± 8"}
{"molecule": "COc1cc(N2CCN(C)CC2)ccc1Nc1ncc(Cl)c(Oc2cccc(NC(=O)CC(F)(F)F)c2)n1", "metabolic activity": "96.4 ± 12"}
{"molecule": "COc1cc2nccc(Nc3ccc(OCc4ccc(NC(C)=O)cc4)cc3)c2cc1OC", "metabolic activity": "108 ± 50"}
{"molecule": "NS(=O)(=O)c1ccc(N/N=C2\\C(=O)Nc3ccc(C(=O)NCCc4c[nH]cn4)cc32)cc1", "metabolic activity": "66.8 ± 12"}
{"molecule": "CC(C)c1nnc2ccc(-c3c(-c4ccc(F)cc4F)nc4occn34)cn12", "metabolic activity": "96.5 ± 7.9"}
{"molecule": "COC(=O)C(NC(=O)NC1CCN(c2ccnc(Nc3ccc(F)cc3)n2)C1)c1ccccc1", "note": "(stereo not drawn)", "metabolic activity": "90.7 ± 11"}
{"molecule": "c1ccc(-c2cc3ccncc3cc2OC2CCNCC2)cc1", "metabolic activity": "94.5 ± 8.5"}
{"molecule": "COC(=O)c1c(-c2ccccc2)c2cc(OC)ccc2c(=O)n1Cc1ccccc1", "metabolic activity": "106 ± 36"}
{"molecule": "CSc1cccc(-c2cc3c(SCCC(=O)O)ncnc3s2)c1", "metabolic activity": "76.2 ± 22"}
